# Experimental data taken from the supplement of paper PMC7238544.
# Where a name gives a salt, the structure may show the parent alone. ± gives the standard deviation of the averaged measurements. Some of the results follow. The data scatter; read single values as rough.
# How the values were obtained:
# [1] = system: hAMSC donor 1; experiment: Hoechst total cell count ratio vs vehicle control; higher = more cells (less toxicity)
# [2] = system: hAMSC donor 2; experiment: as above
# [3] = system: hAMSC donor 1; experiment: transgenic luciferase activity (RLU/mg protein) fold change vs vehicle control (ratio); higher = more transgene expression
# [4] = system: hAMSC donor 1; experiment: transfection efficiency (EGFP+ cells / Hoechst count) fold change vs vehicle control (ratio); hAMSC are human adipose-derived mesenchymal stem cells given an EGFP-luciferase plasmid by lipofection; higher = enhanced transfection
# [5] = system: hAMSC donor 2; experiment: as above
# [6] = priming compound concentration 0.2 µM
# [7] = priming compound concentration 1.7 µM
# [8] = priming compound concentration 13 µM
SMILES,"Hoechst total cell count ratio [1, 6]","Hoechst total cell count ratio [1, 7]","Hoechst total cell count ratio [1, 8]","Hoechst total cell count ratio [2, 6]","Hoechst total cell count ratio [2, 7]","Hoechst total cell count ratio [2, 8]","transgenic luciferase activity [3, 7]","transfection efficiency [4, 6]","transfection efficiency [4, 7]","transfection efficiency [4, 8]","transfection efficiency [5, 6]","transfection efficiency [5, 7]","transfection efficiency [5, 8]","transgenic luciferase activity [3, 6]","transgenic luciferase activity [3, 8]"
Cc1cccc(C)c1NC(=O)C1CCCCN1C (stereo not given) [Mepivacaine hydrochloride],1.56 ± 0.14,1.21 ± 0.14,1.28 ± 0.093,1.19 ± 0.042,1.36 ± 0.13,0.931 ± 0.3,0.721 ± 0.19,1.28 ± 0.27,1.07 ± 0.25,1.14 ± 0.17,0.891 ± 0.17,1.12 ± 0.1,1.35 ± 0.091,,
Nc1ccc2cn[nH]c2c1 [6-Aminoindazole],1.32 ± 0.15,1.41 ± 0.2,1.24 ± 0.16,0.988 ± 0.035,0.823 ± 0.097,1.15 ± 0.35,,0.988 ± 0.14,0.857 ± 0.23,1.01 ± 0.15,1.15 ± 0.056,1.18 ± 0.1,0.931 ± 0.19,1.25 ± 0.35,
COc1cc(C(=O)NS(=O)(=O)c2ccccc2C)ccc1Cc1cn(C)c2ccc(NC(=O)OC3CCCC3)cc12 [Zafirlukast],1.48 ± 0.18,1.06 ± 0.072,1.29 ± 0.075,1.24 ± 0.18,1.37 ± 0.052,1.4 ± 0.21,,1.13 ± 0.2,1.32 ± 0.16,1 ± 0.32,1.21 ± 0.24,0.945 ± 0.18,0.809 ± 0.16,,1.28 ± 1.1
N[C@@H](C(=O)N[C@@H]1C(=O)N2C(C(=O)O)=C(Cl)CS[C@H]12)c1ccccc1 [Cefaclor],1.3 ± 0.13,1.2 ± 0.11,1.35 ± 0.062,1.3 ± 0.26,1.27 ± 0.13,0.916 ± 0.11,,0.888 ± 0.091,1.15 ± 0.13,0.764 ± 0.075,1.04 ± 0.059,1.04 ± 0.094,0.769 ± 0.12,,0.819 ± 0.21
CC(COc1ccccc1)NC(C)C(O)c1ccc(O)cc1 (stereo not given) [Duvadilan],1.38 ± 0.21,1.17 ± 0.025,1.33 ± 0.1,1.11 ± 0.23,0.678 ± 0.12,1.4 ± 0.41,0.403 ± 0.05,1.39 ± 0.19,0.88 ± 0.079,0.813 ± 0.082,0.928 ± 0.34,1.73 ± 0.12,1.26 ± 0.47,,
OC(CCN1CCCC1)(c1ccccc1)C1CCCCC1 (stereo not given) [Procyclidine hydrochloride],1.04 ± 0.036,1.03 ± 0.2,1.05 ± 0.034,1.08 ± 0.074,1.24 ± 0.11,1.28 ± 0.21,,1.09 ± 0.2,1.02 ± 0.21,0.82 ± 0.29,1.09 ± 0.081,0.873 ± 0.18,0.953 ± 0.19,0.7 ± 0.14,
COc1ccnc(C[S+]([O-])c2nc3cc(OC(F)F)ccc3[nH]2)c1OC (stereo not given) [Pantoprazole sodium],1.21 ± 0.1,1.03 ± 0.064,1.19 ± 0.14,0.977 ± 0.18,1.23 ± 0.035,1.304 ± 0.007,,1.15 ± 0.088,1.27 ± 0.094,0.943 ± 0.11,1.21 ± 0.17,1.08 ± 0.098,0.748 ± 0.046,,0.898 ± 0.13
CO[C@H]1O[C@@H]2O[C@@]3(C)CC[C@H]4[C@H](C)CC[C@@H]([C@H]1C)[C@@]24OO3 [Artemether],1.57 ± 0.086,1.4 ± 0.078,1.05 ± 0.13,1 ± 0.057,1.11 ± 0.09,1.04 ± 0.042,,0.948 ± 0.084,0.941 ± 0.057,1.5 ± 0.2,1.05 ± 0.19,1.04 ± 0.18,1.25 ± 0.29,,0.769 ± 0.11
CS(=O)(=O)c1ccc(-c2cc(Br)sc2-c2ccc(F)cc2)cc1,1.36 ± 0.21,1.16 ± 0.33,1.12 ± 0.089,1.2 ± 0.27,1.26 ± 0.088,1.27 ± 0.098,,1.02 ± 0.082,0.949 ± 0.31,1.18 ± 0.17,0.891 ± 0.012,0.831 ± 0.12,0.981 ± 0.076,,0.641 ± 0.24
CC(C)NCC(O)COc1ccc(CCOCC2CC2)cc1 (stereo not given) [Betaxolol hydrochloride],1.54 ± 0.23,1.41 ± 0.063,1.31 ± 0.096,1.14 ± 0.051,1.37 ± 0.054,1.3 ± 0.23,,1.06 ± 0.14,0.869 ± 0.16,0.907 ± 0.11,0.979 ± 0.081,0.92 ± 0.15,0.859 ± 0.29,,0.698 ± 0.12
CCCCc1oc2ccccc2c1C(=O)c1cc(I)c(OCCN(CC)CC)c(I)c1 [Amiodarone hydrochloride],1.26 ± 0.053,1.2 ± 0.13,1.46 ± 0.2,0.973 ± 0.52,1.34 ± 0.12,1.55 ± 0.12,,1.04 ± 0.038,1.22 ± 0.21,0.592 ± 0.066,1.59 ± 0.77,1.42 ± 0.071,0.646 ± 0.11,,0.735 ± 0.11
CC(C(=O)O)c1ccc(-c2ccccc2)c(F)c1 (stereo not given) [Flurbiprofen],1.28 ± 0.06,1.1 ± 0.12,1.32 ± 0.032,1.35 ± 0.014,1.49 ± 0.4,1.31 ± 0.11,,0.889 ± 0.3,1.13 ± 0.36,0.748 ± 0.16,0.953 ± 0.1,1.23 ± 0.44,0.862 ± 0.17,,0.516 ± 0.25
CC1CCN(CCCC(=O)c2ccc(F)cc2)CC1 [Methylperone hydrochloride],1.36 ± 0.14,1.26 ± 0.049,1.25 ± 0.15,1.44 ± 0.26,1.08 ± 0.081,1.09 ± 0.18,,1.06 ± 0.28,1.2 ± 0.2,0.989 ± 0.27,0.745 ± 0.096,0.888 ± 0.12,0.817 ± 0.17,1.11 ± 0.37,
C=CC1=C(C(=O)O)N2C(=O)[C@@H](NC(=O)/C(=N\O)c3csc(N)n3)[C@H]2SC1 [Cefdinir],1.19 ± 0.19,1.09 ± 0.11,0.931 ± 0.16,1.17 ± 0.2,1.19 ± 0.085,0.891 ± 0.24,,1.01 ± 0.2,1.26 ± 0.059,1.23 ± 0.16,1.32 ± 0.54,1.28 ± 0.19,1.11 ± 0.14,,0.94 ± 0.33
CCOC(=O)[C@H](CCc1ccccc1)N[C@@H](C)C(=O)N1[C@H](C(=O)O)C[C@@H]2CCC[C@@H]21 [Ramipril],1.33 ± 0.11,1.09 ± 0.068,1.18 ± 0.22,0.814 ± 0.092,1.24 ± 0.083,1.44 ± 0.063,,0.787 ± 0.11,1.11 ± 0.18,0.703 ± 0.021,1.52 ± 0.1,1.25 ± 0.13,0.698 ± 0.049,,0.525 ± 0.2

# Exported bar-delimited: 2 of the compounds above.
SMILES | Hoechst total cell count ratio [1, 6] | Hoechst total cell count ratio [1, 7] | Hoechst total cell count ratio [1, 8] | Hoechst total cell count ratio [2, 6] | Hoechst total cell count ratio [2, 7] | Hoechst total cell count ratio [2, 8] | transgenic luciferase activity [3, 7] | transfection efficiency [4, 6] | transfection efficiency [4, 7] | transfection efficiency [4, 8] | transfection efficiency [5, 6] | transfection efficiency [5, 7] | transfection efficiency [5, 8] | transgenic luciferase activity [3, 6] | transgenic luciferase activity [3, 8]
Nc1ccc2cn[nH]c2c1 [6-Aminoindazole] | 1.32 ± 0.15 | 1.41 ± 0.2 | 1.24 ± 0.16 | 0.988 ± 0.035 | 0.823 ± 0.097 | 1.15 ± 0.35 |  | 0.988 ± 0.14 | 0.857 ± 0.23 | 1.01 ± 0.15 | 1.15 ± 0.056 | 1.18 ± 0.1 | 0.931 ± 0.19 | 1.25 ± 0.35 | 
COc1ccnc(C[S+]([O-])c2nc3cc(OC(F)F)ccc3[nH]2)c1OC (stereo not given) [Pantoprazole sodium] | 1.21 ± 0.1 | 1.03 ± 0.064 | 1.19 ± 0.14 | 0.977 ± 0.18 | 1.23 ± 0.035 | 1.304 ± 0.007 |  | 1.15 ± 0.088 | 1.27 ± 0.094 | 0.943 ± 0.11 | 1.21 ± 0.17 | 1.08 ± 0.098 | 0.748 ± 0.046 |  | 0.898 ± 0.13
